# In PMC9732823, “Discovery of Dual Aβ/Tau Inhibitors and Evaluation of Their Therapeutic Effect on a Drosophila Model of Alzheimer’s Disease” (ACS Chemical Neuroscience, 2022):
# Conditions: PAMPA
# From the text: Thus, to reduce attrition in the development process, the evaluation of BBB penetration at a very early drug discovery stage is of crucial importance. In light of this, the ability of the previously selected compounds to cross the BBB was predicted by a parallel artificial membrane permeability assay (PAMPA)-BBB,[41] a high-throughput technique widely used as an indicator of a molecule’s passive diffusion through the BBB. Six commercially available drugs were used to validate the assay.
# PAMPA (the parallel artificial membrane permeability assay) is a high-throughput screening tool applicable for the prediction of the passive transport of potential drugs across the BBB.[41] […] The concentrations of the tested compound in both donor and the acceptor wells were assessed after 3, 4, 5, and 6 h of incubation in quadruplicate using a UV plate reader, Synergy HT (Biotek) at the maximum absorption wavelength of each compound (n=3). In addition to that, solution of the theoretical compound concentration, simulating the equilibrium state established if the membrane were ideally permeable, was prepared and assessed as well. The concentrations of the compounds in the donor and acceptor wells and the equilibrium concentration were calculated from the standard curve and expressed as the permeability (Pe) according to the equation[41] […]
structure (smiles),measurement,value
"COc1cc2c(cc1OC)C(=O)C(CC1CCN(Cc3ccccc3)CC1)C2 (stereo not shown) [Donepezil, reference compound]",CNS (+/-),CNS + (key: CNS + (high BBB permeation predicted): Pe (×10-6 cm s-1) > 4.0; CNS - (low BBB permeation predicted): Pe (×10-6 cm s-1) < 2.0; CNS +/- (uncertain BBB permeation): Pe (×10-6 cm s-1) from 4.0 to 2.0)
